From article PMC12728634

Biological target: T1, sclerostin (UniProt Q9BQB4)
T1 sequence (looked up, limits assumed): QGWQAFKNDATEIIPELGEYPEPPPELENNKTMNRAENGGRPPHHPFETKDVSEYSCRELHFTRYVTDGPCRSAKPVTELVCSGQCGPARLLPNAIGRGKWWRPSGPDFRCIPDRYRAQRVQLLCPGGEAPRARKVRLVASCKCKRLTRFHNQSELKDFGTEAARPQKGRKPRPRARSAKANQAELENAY
Experiment: BLI
Settings: tri-GalNAc via amino-C6 linker (terminus not stated in material); 2'-OMe (printed OMe) at nt 1-4 and 37-40; 3' idT (not in string); BLI in 1x PBS + 0.02% Tween20, pH 7.4, 500 rpm; 1:1 fit; regeneration 5 M NaCl; temperature not given; commercial protein; single-stranded DNA

Sequence: ATGCAAGCACATTGTGATCGCTTCAAATGTCTTCCGUCCG [GalNAc-Scramble]
- binding result: no binding

Negatives hold for the conditions tested. At least one verdict was read from the data and is not stated in words by the source. Tags and fusion partners may be left off the protein sequences shown.
